# Experimental data: the supplement of paper PMC10849652
# Protein sequences, listed by entry. Tags and fused reporters are not part of them. Lines headed by an entry give the natural chain unless they say otherwise; changes in a name come on top.
# UniProt P27448: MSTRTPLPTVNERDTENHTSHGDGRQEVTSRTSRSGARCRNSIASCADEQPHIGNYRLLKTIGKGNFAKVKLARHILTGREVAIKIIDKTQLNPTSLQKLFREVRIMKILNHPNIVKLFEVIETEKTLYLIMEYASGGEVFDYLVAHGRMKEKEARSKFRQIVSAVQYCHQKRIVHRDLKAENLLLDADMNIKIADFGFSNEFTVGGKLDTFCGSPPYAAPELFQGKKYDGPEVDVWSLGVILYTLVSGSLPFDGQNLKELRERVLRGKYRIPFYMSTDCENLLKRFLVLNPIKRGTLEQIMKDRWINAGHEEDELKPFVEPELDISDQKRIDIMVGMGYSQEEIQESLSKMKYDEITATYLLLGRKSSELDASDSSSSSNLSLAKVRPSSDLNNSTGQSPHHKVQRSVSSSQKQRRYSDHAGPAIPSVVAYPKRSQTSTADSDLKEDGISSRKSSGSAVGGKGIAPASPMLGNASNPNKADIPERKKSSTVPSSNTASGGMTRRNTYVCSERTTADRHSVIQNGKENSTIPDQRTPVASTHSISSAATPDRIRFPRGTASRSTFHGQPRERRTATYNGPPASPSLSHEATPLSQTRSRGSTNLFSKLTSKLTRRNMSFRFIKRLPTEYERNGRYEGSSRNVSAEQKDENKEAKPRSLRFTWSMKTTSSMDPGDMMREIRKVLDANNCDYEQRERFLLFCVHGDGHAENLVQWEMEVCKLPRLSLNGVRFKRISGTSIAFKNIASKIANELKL
# UniProt Q7Z3D4: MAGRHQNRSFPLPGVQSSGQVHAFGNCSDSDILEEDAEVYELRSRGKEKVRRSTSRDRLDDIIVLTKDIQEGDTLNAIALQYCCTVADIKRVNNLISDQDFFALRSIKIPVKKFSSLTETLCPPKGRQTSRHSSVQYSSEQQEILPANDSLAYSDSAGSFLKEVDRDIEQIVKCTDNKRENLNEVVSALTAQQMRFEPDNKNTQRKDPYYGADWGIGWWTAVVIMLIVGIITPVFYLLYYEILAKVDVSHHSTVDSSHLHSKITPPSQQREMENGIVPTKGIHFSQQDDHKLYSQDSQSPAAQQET
# UniProt Q8IV50: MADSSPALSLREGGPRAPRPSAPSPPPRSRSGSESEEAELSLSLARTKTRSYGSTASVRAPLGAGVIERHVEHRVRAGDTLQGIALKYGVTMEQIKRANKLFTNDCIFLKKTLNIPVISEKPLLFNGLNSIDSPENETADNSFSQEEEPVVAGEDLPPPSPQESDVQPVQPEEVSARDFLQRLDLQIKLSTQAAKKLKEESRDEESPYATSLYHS
# UniProt Q9BQ69: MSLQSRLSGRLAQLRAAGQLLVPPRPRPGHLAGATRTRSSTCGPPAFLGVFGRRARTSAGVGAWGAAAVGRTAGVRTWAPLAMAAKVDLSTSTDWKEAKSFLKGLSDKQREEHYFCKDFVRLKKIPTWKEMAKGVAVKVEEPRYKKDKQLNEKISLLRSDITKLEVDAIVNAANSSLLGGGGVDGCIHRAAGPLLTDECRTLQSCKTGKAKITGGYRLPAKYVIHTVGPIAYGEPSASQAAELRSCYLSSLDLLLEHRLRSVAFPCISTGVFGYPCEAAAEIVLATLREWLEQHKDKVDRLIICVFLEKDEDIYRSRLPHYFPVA
# UniProt P49137, whole entry, looked up: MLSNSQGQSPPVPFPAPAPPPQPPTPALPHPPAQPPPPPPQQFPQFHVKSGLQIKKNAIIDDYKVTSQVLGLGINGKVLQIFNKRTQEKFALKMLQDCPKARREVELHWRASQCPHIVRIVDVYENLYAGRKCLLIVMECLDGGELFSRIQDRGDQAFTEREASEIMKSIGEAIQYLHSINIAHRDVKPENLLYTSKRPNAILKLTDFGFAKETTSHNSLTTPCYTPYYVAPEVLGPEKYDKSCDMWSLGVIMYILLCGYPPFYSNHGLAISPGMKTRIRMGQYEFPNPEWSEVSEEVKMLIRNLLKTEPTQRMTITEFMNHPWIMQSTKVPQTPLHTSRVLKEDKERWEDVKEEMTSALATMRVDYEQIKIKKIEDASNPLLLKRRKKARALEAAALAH
# UniProt Q8WVR3: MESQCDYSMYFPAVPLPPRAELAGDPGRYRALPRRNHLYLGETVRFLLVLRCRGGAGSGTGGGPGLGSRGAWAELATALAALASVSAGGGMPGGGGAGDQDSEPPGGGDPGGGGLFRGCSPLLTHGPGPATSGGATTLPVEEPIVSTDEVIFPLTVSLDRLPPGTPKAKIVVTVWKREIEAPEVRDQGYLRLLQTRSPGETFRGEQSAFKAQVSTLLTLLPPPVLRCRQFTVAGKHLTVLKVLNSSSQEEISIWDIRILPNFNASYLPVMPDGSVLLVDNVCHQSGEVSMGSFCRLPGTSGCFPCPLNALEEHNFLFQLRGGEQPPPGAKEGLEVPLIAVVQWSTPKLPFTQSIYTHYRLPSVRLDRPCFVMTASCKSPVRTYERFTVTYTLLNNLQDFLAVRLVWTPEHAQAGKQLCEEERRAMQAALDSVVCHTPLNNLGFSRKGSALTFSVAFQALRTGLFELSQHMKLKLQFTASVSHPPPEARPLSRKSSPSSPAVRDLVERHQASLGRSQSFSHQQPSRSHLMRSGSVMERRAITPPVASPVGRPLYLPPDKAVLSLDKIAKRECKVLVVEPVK
# UniProt P49006: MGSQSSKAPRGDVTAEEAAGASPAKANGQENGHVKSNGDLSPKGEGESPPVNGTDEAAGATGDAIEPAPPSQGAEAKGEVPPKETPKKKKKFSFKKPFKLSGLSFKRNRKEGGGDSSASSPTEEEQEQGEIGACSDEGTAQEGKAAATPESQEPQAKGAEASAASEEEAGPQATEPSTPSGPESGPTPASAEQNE
# UniProt P49641: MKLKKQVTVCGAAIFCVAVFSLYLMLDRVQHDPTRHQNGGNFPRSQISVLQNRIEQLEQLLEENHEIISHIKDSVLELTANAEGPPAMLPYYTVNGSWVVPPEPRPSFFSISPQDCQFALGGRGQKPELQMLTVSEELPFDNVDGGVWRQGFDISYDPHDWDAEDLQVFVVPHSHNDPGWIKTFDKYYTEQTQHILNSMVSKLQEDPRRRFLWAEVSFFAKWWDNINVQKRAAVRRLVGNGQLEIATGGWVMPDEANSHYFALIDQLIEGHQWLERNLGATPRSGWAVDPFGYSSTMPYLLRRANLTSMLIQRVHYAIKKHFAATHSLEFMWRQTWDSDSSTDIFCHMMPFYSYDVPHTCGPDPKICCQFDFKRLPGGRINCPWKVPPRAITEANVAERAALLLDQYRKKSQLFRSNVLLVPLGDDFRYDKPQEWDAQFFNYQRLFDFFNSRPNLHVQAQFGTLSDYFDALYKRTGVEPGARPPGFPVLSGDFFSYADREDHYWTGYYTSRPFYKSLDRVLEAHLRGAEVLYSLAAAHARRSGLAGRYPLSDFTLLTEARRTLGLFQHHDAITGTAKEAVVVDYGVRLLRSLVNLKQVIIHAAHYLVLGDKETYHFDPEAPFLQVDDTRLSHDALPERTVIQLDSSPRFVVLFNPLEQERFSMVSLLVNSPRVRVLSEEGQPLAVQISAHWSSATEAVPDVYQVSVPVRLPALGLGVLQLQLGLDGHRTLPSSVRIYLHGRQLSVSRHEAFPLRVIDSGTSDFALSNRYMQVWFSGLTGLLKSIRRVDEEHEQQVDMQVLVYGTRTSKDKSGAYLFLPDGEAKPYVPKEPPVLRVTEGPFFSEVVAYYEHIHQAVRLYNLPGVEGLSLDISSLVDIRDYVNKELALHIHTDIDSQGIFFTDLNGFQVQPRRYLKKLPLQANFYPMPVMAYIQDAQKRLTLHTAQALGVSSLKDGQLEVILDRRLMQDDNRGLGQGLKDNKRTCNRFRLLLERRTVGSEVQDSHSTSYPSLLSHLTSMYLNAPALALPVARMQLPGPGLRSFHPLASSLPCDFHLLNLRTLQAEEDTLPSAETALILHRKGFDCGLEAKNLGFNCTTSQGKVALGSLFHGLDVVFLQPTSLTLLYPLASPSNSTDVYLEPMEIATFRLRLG
# UniProt Q9UNF1: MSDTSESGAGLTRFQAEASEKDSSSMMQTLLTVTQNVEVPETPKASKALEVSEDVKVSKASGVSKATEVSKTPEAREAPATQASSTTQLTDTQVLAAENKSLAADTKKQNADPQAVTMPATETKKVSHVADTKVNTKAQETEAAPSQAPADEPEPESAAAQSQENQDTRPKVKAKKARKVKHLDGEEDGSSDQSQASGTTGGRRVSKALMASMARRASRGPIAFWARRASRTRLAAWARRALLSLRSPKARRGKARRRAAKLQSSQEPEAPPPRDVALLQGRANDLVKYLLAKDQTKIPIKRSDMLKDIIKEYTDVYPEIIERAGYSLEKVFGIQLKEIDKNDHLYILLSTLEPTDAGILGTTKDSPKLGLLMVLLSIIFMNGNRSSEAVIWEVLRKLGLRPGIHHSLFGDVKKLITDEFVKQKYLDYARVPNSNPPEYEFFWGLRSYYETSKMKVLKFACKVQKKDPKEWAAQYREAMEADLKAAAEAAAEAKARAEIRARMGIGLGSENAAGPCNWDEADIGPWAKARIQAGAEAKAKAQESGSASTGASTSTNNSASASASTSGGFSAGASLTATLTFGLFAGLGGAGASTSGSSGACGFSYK
# UniProt Q96A72, whole entry, looked up: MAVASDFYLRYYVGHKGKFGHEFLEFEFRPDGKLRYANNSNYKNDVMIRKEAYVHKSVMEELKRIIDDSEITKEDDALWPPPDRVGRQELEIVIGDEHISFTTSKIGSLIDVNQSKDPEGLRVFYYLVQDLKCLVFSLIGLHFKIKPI
# UniProt P28482, whole entry, looked up: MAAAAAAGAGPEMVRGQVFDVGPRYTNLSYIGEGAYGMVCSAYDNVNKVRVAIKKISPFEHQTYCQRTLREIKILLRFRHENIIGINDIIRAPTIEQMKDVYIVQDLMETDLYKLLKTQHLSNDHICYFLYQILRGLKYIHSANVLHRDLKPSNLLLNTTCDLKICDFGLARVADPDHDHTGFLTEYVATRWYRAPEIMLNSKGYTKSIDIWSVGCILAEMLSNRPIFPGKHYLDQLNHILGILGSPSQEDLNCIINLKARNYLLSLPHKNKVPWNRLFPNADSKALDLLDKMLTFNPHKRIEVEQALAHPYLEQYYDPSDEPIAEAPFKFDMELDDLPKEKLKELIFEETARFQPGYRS
# UniProt O75608: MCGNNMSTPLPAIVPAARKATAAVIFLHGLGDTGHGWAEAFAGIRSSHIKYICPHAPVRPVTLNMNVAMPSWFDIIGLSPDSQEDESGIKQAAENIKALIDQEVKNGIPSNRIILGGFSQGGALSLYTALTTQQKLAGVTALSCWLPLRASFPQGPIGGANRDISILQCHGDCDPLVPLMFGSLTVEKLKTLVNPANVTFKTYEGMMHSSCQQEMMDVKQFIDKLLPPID
# UniProt O00754: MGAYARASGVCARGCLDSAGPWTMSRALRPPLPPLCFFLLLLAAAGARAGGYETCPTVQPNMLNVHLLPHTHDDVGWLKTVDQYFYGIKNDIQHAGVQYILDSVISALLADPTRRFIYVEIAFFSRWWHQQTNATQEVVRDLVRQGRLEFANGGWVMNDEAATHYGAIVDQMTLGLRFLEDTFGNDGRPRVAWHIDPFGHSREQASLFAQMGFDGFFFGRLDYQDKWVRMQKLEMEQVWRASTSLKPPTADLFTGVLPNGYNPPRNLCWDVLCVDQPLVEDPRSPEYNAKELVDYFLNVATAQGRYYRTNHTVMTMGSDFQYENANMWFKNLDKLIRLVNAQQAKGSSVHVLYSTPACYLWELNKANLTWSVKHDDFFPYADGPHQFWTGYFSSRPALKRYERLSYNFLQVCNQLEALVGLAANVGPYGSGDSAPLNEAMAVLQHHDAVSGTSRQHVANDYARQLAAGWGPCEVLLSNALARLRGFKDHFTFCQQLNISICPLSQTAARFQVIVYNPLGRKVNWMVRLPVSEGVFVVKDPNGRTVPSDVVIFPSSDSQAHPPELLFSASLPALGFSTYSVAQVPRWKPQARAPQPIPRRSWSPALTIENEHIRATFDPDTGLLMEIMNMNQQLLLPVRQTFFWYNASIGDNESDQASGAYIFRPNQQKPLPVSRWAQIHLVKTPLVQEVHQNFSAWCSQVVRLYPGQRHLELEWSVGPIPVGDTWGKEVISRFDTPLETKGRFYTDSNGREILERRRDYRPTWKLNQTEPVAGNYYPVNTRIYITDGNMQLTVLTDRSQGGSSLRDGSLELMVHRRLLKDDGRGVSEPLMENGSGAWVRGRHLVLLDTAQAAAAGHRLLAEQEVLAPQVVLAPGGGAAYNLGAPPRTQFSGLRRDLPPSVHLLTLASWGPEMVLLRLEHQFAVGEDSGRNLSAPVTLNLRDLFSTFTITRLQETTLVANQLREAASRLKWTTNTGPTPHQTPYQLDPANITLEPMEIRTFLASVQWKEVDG
# This is one part of the list.
# How the values were obtained:
# Test in all cases: log2 fold change, soluble protein after heating vs DMSO (PISA); higher = thermal stabilisation; K562 lysate, 10 uM; active = over 0.2 and 3.5 SD of the protein, either way, in both replicates (recomputed)
# [1] = compound: CS(=O)(=O)CCNCc1ccc(-c2ccc3ncnc(Nc4ccc(OCc5cccc(F)c5)c(Cl)c4)c3c2)o1 [lapatinib]
# Procedure, shortened: (§1)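 To prepare the extract, K562 pellets were dounce-homogenised in PBS pH 7.4 with 1 mM MgCl2, giving crude material at 1 mg/mL protein. This was treated with 10 μM compound for 30 min, then heated in aliquots for 3 min over 48°C-58°C before pooling and addition of NP-40 to 0.5% at 4°C. Centrifugation at 21,000xg for 90 min left soluble protein in the supernatant, which TMTpro 16plex LC-MS/MS quantified with equalised channel sums. Results are log-two fold changes in thermal stability compared with solvent controls, from duplicates.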
# [2] = compound: CS(=O)(=O)N1CCN(Cc2cc3nc(-c4cccc5[nH]ncc45)nc(N4CCOCC4)c3s2)CC1 [pictilisib]
# Procedure, shortened: as §1
# [3] = compound: C[C@@H](Oc1cc(-c2cnn(C3CCNCC3)c2)cnc1N)c1c(Cl)ccc(F)c1Cl [crizotinib]
# Procedure, shortened: as §1
# [4] = compound: C[C@H](C1=CC=C(C=C1)C(=O)NC2=C3C=CNC3=NC=C2)N
# Procedure, shortened: as §1
# [5] = compound: C[C@H](Nc1ncnc2nc[nH]c12)c1cc2cccc(Cl)c2c(=O)n1-c1ccccc1 [duvelisib]
# Procedure, shortened: as §1
# [6] = compound: Cc1cc(Nc2cc(CN3CCOCC3)c3nc(C)c(Cc4ccc(Cl)cc4F)n3n2)n[nH]1 [gandotinib]
# Procedure, shortened: as §1
# [7] = compound: Cc1cc(Nc2cc(N3CCN(C)CC3)nc(Sc3ccc(NC(=O)C4CC4)cc3)n2)n[nH]1 [tozasertib]
# Procedure, shortened: as §1
# [8] = compound: Cc1ccc(-n2nc(C(C)(C)C)cc2NC(=O)Nc2ccc(OCCN3CCOCC3)c3ccccc23)cc1 [doramapimod]
# Procedure, shortened: as §1
# [9] = compound: Cc1ccc(NC(=O)c2ccc(CN3CC[C@H](N(C)C)C3)c(C(F)(F)F)c2)cc1Nc1nccc(-c2cncnc2)n1 [bafetinib]
# Procedure, shortened: as §1
# [10] = compound: Cc1cccc(CC(=O)N2CCc3c2ccc(-c2cn(C)c4ncnc(N)c24)c3F)n1
# Procedure, shortened: as §1
# [11] = compound: Cc1cn(-c2cc(NC(=O)c3ccc(C)c(Nc4nccc(-c5cccnc5)n4)c3)cc(C(F)(F)F)c2)cn1 [nilotinib]
# Procedure, shortened: as §1
# [12] = compound: Cc1nc(Nc2n[nH]c3c2CN(C(=O)N[C@H](CN(C)C)c2ccccc2)C3(C)C)c2sccc2n1
# Procedure, shortened: as §1
# [13] = compound: Cc1nc(Nc2ncc(C(=O)Nc3c(C)cccc3Cl)s2)cc(N2CCN(CCO)CC2)n1 [dasatinib]
# Procedure, shortened: as §1
# [14] = compound: Cc1ncc(-c2ccnc(Nc3ccc(S(C)(=O)=O)cc3)n2)n1C(C)C
# Procedure, shortened: as §1
# [15] = compound: Cn1cc(-c2ccc3c(c2)CCN3C(=O)Cc2cccc(C(F)(F)F)c2)c2c(N)ncnc21
# Procedure, shortened: as §1
# [16] = compound: Cn1cc(CNCC2CCN(c3ncc(C(=O)NO)cn3)CC2)c2ccccc21 [quisinostat]
# Procedure, shortened: as §1
# [17] = compound: Cn1cncc1[C@@](N)(c1ccc(Cl)cc1)c1ccc2c(c1)c(-c1cccc(Cl)c1)cc(=O)n2C [tipifarnib]
# Procedure, shortened: as §1
# [18] = compound: NC(=O)Nc1cc(-c2cccc(F)c2)sc1C(=O)N[C@H]1CCCNC1
# Procedure, shortened: as §1
# [19] = compound: NC(=O)c1cnc(N[C@@H]2CCCC[C@@H]2N)nc1Nc1cccc(-n2nccn2)c1
# Procedure, shortened: as §1
# [20] = compound: NC1(c2ccc(-c3nc4ccn5c(=O)[nH]nc5c4cc3-c3ccccc3)cc2)CCC1
# Procedure, shortened: as §1
Target,log2 fold change [1],log2 fold change [2],log2 fold change [3],log2 fold change [4],log2 fold change [5],log2 fold change [6],log2 fold change [7],log2 fold change [8],log2 fold change [9],log2 fold change [10],log2 fold change [11],log2 fold change [12],log2 fold change [13],log2 fold change [14],log2 fold change [15],log2 fold change [16],log2 fold change [17],log2 fold change [18],log2 fold change [19],log2 fold change [20]
MARK3 (UniProt P27448),inactive: 0.007,inactive: -0.061,inactive: -0.206,inactive: 0.043,inactive: 0.011,inactive: -0.089,inactive: -0.143,inactive: -0.081,inactive: -0.088,inactive: 0.049,inactive: 0.013,inactive: -0.004,inactive: -0.186,inactive: -0.05,inactive: 0.014,inactive: 0.172,inactive: -0.072,inactive: -0.08,inactive: -0.029,inactive: -0.06
LYSMD3 (UniProt Q7Z3D4),inactive: -0.039,inactive: -0.039,inactive: -0.018,inactive: -0.273,inactive: 0.066,inactive: 0.307,inactive: 0.058,inactive: 0.041,inactive: -0.057,inactive: 0.23,inactive: -0.096,inactive: -0.293,inactive: -0.083,inactive: 0.171,inactive: -0.068,inactive: -0.037,active: 0.352,inactive: -0.022,inactive: 0.057,inactive: 0.023
LYSMD2 (UniProt Q8IV50),inactive: -0.038,inactive: -0.039,inactive: 0.055,inactive: 0,inactive: -0.009,inactive: 0.002,inactive: -0.027,inactive: 0.017,inactive: 0.051,inactive: -0.062,inactive: -0.035,inactive: 0.021,inactive: 0.025,inactive: 0,inactive: 0.033,inactive: 0.012,inactive: -0.064,inactive: 0.003,inactive: -0.021,inactive: 0.05
MACROD1 (UniProt Q9BQ69),inactive: 0.011,inactive: -0.013,inactive: -0.066,inactive: 0.084,inactive: 0.04,inactive: -0.017,inactive: -0.03,inactive: -0.012,inactive: -0.102,inactive: 0.052,inactive: 0.036,inactive: -0.099,inactive: -0.066,inactive: 0.021,inactive: 0.055,inactive: -0.083,inactive: 0.005,inactive: 0.022,inactive: -0.006,inactive: -0.024
MAPKAPK2 (UniProt P49137),inactive: -0.04,inactive: -0.05,inactive: -0.014,inactive: 0.046,inactive: 0.033,inactive: -0.03,inactive: 0.004,inactive: 0.092,inactive: -0.037,inactive: 0.018,inactive: 0.032,inactive: 0.068,inactive: -0.043,inactive: -0.008,inactive: 0,inactive: 0.01,inactive: 0.032,inactive: 0.148,inactive: 0.022,inactive: 0.008
MAP11 (UniProt Q8WVR3),inactive: -0.047,inactive: -0.028,inactive: -0.011,inactive: -0.102,inactive: -0.04,inactive: -0.06,inactive: -0.024,inactive: -0.024,inactive: -0.021,inactive: 0.001,inactive: -0.088,inactive: 0.002,inactive: 0.002,inactive: 0.021,inactive: -0.058,inactive: -0.026,inactive: -0.063,inactive: 0.037,inactive: -0.014,inactive: -0.007
MARCKSL1 (UniProt P49006),inactive: 0.039,inactive: -0.021,inactive: 0.118,inactive: 0.173,inactive: -0.004,inactive: -0.144,inactive: 0.011,inactive: -0.038,inactive: 0.092,inactive: -0.257,inactive: 0.015,inactive: 0.003,inactive: 0.061,inactive: 0.001,inactive: 0.026,inactive: 0.079,inactive: 0.041,inactive: 0.004,inactive: -0.054,inactive: 0.056
MAN2A2 (UniProt P49641),inactive: -0.032,inactive: -0.026,inactive: 0.018,inactive: 0.001,inactive: -0.014,inactive: 0.039,inactive: 0.053,inactive: 0.059,inactive: -0.17,inactive: 0.036,inactive: -0.005,inactive: -0.031,inactive: 0.018,inactive: -0.035,inactive: 0.029,inactive: -0.051,inactive: -0.038,inactive: 0.054,inactive: 0.074,inactive: -0.029
MAGED2 (UniProt Q9UNF1),inactive: -0.017,inactive: 0.013,inactive: -0.039,inactive: 0.016,inactive: -0.014,inactive: -0.108,inactive: -0.012,inactive: 0.017,inactive: -0.156,inactive: 0,inactive: 0.047,inactive: -0.026,inactive: -0.024,inactive: -0.085,inactive: 0.05,inactive: -0.031,inactive: -0.031,inactive: 0.01,inactive: -0.022,inactive: -0.074
MAGOHB (UniProt Q96A72),inactive: -0.006,inactive: 0.009,inactive: 0.019,inactive: -0.177,inactive: -0.015,inactive: 0.027,inactive: 0,inactive: -0.015,inactive: -0.01,inactive: 0.065,inactive: 0.021,inactive: -0.023,inactive: -0.04,inactive: -0.02,inactive: -0.002,inactive: 0.063,inactive: -0.007,inactive: 0.035,inactive: -0.012,inactive: -0.031
LYZ (UniProt P61626),inactive: -0.195,inactive: 0.061,inactive: 0.98,inactive: 0.37,inactive: 0.017,inactive: -0.249,inactive: -0.01,inactive: -0.097,inactive: 0.686,inactive: 0.258,inactive: -0.007,inactive: -0.211,inactive: -0.078,inactive: 0.001,inactive: 1.25,inactive: -0.035,inactive: -0.207,inactive: 0.305,inactive: -0.05,inactive: 0.422
MAPK1 (UniProt P28482),inactive: -0.018,inactive: 0.005,inactive: 0.065,inactive: -0.004,inactive: 0.004,inactive: 0.036,inactive: -0.01,inactive: -0.013,inactive: 0.004,inactive: -0.061,inactive: -0.042,inactive: 0.205,inactive: -0.014,inactive: 0.091,inactive: -0.01,inactive: 0.07,inactive: 0.011,inactive: 0.01,inactive: 0.088,inactive: 0.003
MAP2K2 (UniProt P36507),inactive: -0.048,inactive: 0.015,inactive: 0.039,inactive: 0.207,inactive: 0.012,inactive: -0.065,inactive: 0.282,inactive: -0.058,inactive: -0.063,inactive: -0.015,inactive: -0.03,inactive: 0.205,active: 0.445,inactive: 0.065,inactive: -0.031,inactive: 0,inactive: -0.006,active: 0.495,inactive: 0.033,inactive: -0.002
LYPLA1 (UniProt O75608),inactive: 0.001,inactive: 0.035,inactive: 0.029,inactive: 0.077,inactive: -0.015,inactive: -0.077,inactive: 0.047,inactive: 0.012,inactive: -0.018,inactive: -0.074,inactive: 0.01,inactive: 0.034,inactive: -0.006,inactive: 0.018,inactive: 0.033,inactive: 0.038,inactive: 0.054,inactive: -0.009,inactive: -0.024,inactive: -0.007
MAN2B1 (UniProt O00754),inactive: 0.013,inactive: -0.001,inactive: 0.074,inactive: 0,inactive: 0.076,inactive: 0.032,inactive: -0.03,inactive: -0.065,inactive: 0.013,inactive: -0.063,inactive: -0.078,inactive: -0.083,inactive: 0.037,inactive: -0.167,inactive: 0.044,inactive: -0.036,inactive: 0,inactive: 0.048,inactive: -0.019,inactive: -0.015
